Results are given in words; binding and its absence hold for the method and conditions named. Binding seen in cells or lysates may run through a third protein. A result given as binding can be weak or reduced; the word gives no strength.

The test concerns the target T1, GUN1-cEYFP (Arabidopsis thaliana) (UniProt Q9SIC9).
T1 sequence: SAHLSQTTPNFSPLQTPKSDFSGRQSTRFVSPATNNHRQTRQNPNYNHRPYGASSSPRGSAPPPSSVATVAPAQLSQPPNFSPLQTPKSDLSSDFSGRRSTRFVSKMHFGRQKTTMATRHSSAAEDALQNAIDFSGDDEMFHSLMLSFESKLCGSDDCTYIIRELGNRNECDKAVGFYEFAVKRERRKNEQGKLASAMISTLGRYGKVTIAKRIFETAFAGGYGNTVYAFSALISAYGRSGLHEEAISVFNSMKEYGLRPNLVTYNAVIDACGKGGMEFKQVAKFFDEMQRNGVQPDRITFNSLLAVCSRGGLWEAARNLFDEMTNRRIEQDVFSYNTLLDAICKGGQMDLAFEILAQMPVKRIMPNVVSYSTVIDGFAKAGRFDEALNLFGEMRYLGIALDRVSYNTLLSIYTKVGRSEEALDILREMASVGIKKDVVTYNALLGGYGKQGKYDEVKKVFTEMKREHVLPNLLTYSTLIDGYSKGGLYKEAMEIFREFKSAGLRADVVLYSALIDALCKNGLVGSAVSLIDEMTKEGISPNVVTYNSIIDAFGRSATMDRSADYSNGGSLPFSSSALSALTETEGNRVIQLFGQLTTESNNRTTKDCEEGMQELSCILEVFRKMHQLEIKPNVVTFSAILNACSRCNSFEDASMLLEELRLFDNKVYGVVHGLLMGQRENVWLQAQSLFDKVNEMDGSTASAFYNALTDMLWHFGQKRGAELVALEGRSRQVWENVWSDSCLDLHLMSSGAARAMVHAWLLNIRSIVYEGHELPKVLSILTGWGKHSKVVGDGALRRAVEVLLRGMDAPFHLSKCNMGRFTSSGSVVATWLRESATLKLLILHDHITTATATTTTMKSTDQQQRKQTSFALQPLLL
Description: split reporter; BiFC in transfected Arabidopsis mesophyll protoplasts; GUN1 with cEYFP, candidate with nEYFP; confocal microscopy after 16 h at 22 °C in the dark.

Take “HCF145 fused with nEYFP (Arabidopsis thaliana)”: the binding result is recorded as “binds”.
As to “DJC31 fused with nEYFP (Arabidopsis thaliana)”, the binding result is “binds”.

Values taken from publication PMC8583188.
